Measured values from patent US20090181917A1.
No constants are given. Whether binding was seen depends on the method and setting. Binding seen in cells or lysates may run through a third protein. Some entries that bind do so weakly or less than the wild type.

Target: T1, biotinylated synthetic peptide comprising … (SEQ ID No. 6)
T1 sequence (peptide, biotinylated (position not stated)): MAHSCRWRFP
Experiment: pull-down on streptavidin-agarose beads loaded with biotinylated peptide, anti-menin Western blot

binding: binds
B1: menin expressed in and purified from E. coli (protein)
chain: MGLKAAQKTLFPLRSIDDVVRLFAAELGREEPDLVLLSLVLGFVEHFLAVNRVIPTNVPELTFQPSPAPDPPGGLTYFPVADLSIIAALYARFTAQIRGAVDLSLYPREGGVSSRELVKKVSDVIWNSLSRSYFKDRAHIQSLFSFITGWSPVGTKLDSSGVAFAVVGACQALGLRDVHLALSEDHAWVVFGPNGEQTAEVTWHGKGNEDRRGQTVNAGVAERSWLYLKGSYMRCDRKMEVAFMVCAINPSIDLHTDSLELLQLQQKLLWLLYDLGHLERYPMALGNLADLEELEPTPGRPDPLTLYHKGIASAKTYYRDEHIYPYMYLAGYHCRNRNVREALQAWADTATVIQDYNYCREDEEIYKEFFEVANDVIPNLLKEAASLLEAGEERPGEQSQGTQSQGSALQDPECFAHLLRFYDGICKWEEGSPTPVLHVGWATFLVQSLGRFEGQVRQKVRIVSREAEAAEAEEPWGEEAREGRRRGPRRESKPEEPPPPKKPALDKGLGTGQGAVSGPPRKPPGTVAGTARGPEGGSTAQVPAPAASPPPEGPVLTFQSEKMKGMKELLVATKINSSAIKLQLTAQSQVQMKKQKVSTPSDYTLSFLKRQRKGL
